The other results are listed elsewhere or left out.
How the values were obtained:
Assay in all cases: log2 fold change, soluble protein after heating vs DMSO (PISA); higher = thermal stabilisation; K562 cells, 10 uM, 30 min; active = over 0.2 and 3.5 SD of the protein, either way, in both replicates (recomputed)
[1] = compound: Cc1cccc(CC(=O)N2CCc3c2ccc(-c2cn(C)c4ncnc(N)c24)c3F)n1
Outline: (§1)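 Soluble protein was defined as the supernatant after 21,000xg for 90 min. It came from K562 cells at 2×10^6 cells/mL given 10 μM compound for 30 min, heated in aliquots for 3 min across 48°C-58°C, pooled, and extracted in PBS with 0.5% NP-40 at 4°C, and was quantified by TMTpro 16plex LC-MS/MS with equalised channel sums. Thermal stability against control samples, from duplicates, is reported as log2 fold change.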

Amino acid sequences for entries named in this document (tags omitted). A change or cut given only in a name is not applied to a line headed by its entry.
UniProt Q6P6B7: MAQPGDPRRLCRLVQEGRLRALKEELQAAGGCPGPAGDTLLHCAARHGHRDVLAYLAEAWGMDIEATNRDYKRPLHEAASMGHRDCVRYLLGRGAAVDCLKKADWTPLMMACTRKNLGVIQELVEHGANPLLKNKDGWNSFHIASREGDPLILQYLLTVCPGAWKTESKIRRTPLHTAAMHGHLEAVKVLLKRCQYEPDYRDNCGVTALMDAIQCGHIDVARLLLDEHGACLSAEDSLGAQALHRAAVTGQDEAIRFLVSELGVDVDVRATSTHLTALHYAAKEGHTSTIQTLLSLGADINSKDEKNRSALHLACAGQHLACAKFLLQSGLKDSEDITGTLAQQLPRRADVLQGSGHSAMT
UniProt Q9NUS5: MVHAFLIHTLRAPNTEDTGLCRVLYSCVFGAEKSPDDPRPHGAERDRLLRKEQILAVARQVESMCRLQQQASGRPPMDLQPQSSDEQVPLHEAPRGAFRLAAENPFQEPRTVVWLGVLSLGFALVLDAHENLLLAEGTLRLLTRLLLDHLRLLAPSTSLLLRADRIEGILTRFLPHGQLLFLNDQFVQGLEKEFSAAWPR
UniProt P02655: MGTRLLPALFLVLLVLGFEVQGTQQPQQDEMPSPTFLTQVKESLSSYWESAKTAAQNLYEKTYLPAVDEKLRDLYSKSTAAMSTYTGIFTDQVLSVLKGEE
UniProt Q9NRY4: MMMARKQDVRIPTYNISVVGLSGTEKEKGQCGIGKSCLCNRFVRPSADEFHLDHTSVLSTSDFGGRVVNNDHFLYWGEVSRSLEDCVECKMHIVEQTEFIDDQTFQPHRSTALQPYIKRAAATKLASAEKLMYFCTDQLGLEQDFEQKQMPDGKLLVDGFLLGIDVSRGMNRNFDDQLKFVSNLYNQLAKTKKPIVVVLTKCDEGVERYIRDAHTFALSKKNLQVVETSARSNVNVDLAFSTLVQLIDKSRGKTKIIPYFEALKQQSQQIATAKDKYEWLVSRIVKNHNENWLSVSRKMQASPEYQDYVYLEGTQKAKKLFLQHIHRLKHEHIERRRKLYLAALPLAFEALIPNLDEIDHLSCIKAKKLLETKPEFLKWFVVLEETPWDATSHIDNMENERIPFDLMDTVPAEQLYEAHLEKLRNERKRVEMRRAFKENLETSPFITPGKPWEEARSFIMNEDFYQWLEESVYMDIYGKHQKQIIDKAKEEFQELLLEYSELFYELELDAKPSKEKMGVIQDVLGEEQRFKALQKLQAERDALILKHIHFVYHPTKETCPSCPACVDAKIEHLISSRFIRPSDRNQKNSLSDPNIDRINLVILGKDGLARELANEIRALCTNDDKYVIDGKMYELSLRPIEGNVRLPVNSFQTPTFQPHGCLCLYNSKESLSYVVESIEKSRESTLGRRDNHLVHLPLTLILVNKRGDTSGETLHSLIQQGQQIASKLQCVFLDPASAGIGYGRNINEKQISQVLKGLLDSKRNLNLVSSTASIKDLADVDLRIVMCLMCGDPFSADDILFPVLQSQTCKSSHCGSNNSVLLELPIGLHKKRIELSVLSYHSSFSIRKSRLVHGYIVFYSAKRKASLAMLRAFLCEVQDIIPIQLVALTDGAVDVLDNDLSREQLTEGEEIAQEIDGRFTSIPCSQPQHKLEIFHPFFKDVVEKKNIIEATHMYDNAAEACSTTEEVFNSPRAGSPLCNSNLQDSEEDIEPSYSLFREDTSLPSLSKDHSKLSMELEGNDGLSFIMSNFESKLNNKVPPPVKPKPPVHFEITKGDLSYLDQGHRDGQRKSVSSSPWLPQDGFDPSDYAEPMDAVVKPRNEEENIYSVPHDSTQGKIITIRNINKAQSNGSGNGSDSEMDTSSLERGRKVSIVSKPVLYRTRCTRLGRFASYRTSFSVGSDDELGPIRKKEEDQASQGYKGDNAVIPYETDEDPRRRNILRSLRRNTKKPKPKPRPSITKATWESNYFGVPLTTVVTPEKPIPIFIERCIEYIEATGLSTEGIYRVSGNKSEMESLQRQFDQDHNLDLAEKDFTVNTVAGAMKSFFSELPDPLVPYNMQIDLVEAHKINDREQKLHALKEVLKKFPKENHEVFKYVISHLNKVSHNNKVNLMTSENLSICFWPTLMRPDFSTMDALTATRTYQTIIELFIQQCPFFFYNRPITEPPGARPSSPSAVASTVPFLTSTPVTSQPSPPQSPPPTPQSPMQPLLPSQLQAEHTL
UniProt P05090: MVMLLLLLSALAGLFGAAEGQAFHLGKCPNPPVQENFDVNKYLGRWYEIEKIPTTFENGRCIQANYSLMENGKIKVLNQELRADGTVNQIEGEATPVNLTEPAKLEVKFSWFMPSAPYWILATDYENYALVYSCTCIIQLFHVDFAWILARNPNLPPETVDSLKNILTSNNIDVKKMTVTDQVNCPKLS
UniProt Q8IW19: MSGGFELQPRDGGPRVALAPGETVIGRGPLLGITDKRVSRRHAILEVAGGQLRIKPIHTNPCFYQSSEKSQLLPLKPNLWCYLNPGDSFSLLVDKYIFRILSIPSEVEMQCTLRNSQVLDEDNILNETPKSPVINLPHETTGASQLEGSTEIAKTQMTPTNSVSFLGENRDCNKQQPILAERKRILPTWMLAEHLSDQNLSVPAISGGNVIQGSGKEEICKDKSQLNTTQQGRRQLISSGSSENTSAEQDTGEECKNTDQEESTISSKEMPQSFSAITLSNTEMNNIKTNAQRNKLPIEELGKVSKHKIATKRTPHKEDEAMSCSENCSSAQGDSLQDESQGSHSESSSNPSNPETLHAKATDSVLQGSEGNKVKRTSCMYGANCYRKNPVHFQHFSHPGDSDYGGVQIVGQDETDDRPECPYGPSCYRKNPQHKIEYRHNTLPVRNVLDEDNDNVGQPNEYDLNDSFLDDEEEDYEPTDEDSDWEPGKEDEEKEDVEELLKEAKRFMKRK
UniProt Q9UPS8: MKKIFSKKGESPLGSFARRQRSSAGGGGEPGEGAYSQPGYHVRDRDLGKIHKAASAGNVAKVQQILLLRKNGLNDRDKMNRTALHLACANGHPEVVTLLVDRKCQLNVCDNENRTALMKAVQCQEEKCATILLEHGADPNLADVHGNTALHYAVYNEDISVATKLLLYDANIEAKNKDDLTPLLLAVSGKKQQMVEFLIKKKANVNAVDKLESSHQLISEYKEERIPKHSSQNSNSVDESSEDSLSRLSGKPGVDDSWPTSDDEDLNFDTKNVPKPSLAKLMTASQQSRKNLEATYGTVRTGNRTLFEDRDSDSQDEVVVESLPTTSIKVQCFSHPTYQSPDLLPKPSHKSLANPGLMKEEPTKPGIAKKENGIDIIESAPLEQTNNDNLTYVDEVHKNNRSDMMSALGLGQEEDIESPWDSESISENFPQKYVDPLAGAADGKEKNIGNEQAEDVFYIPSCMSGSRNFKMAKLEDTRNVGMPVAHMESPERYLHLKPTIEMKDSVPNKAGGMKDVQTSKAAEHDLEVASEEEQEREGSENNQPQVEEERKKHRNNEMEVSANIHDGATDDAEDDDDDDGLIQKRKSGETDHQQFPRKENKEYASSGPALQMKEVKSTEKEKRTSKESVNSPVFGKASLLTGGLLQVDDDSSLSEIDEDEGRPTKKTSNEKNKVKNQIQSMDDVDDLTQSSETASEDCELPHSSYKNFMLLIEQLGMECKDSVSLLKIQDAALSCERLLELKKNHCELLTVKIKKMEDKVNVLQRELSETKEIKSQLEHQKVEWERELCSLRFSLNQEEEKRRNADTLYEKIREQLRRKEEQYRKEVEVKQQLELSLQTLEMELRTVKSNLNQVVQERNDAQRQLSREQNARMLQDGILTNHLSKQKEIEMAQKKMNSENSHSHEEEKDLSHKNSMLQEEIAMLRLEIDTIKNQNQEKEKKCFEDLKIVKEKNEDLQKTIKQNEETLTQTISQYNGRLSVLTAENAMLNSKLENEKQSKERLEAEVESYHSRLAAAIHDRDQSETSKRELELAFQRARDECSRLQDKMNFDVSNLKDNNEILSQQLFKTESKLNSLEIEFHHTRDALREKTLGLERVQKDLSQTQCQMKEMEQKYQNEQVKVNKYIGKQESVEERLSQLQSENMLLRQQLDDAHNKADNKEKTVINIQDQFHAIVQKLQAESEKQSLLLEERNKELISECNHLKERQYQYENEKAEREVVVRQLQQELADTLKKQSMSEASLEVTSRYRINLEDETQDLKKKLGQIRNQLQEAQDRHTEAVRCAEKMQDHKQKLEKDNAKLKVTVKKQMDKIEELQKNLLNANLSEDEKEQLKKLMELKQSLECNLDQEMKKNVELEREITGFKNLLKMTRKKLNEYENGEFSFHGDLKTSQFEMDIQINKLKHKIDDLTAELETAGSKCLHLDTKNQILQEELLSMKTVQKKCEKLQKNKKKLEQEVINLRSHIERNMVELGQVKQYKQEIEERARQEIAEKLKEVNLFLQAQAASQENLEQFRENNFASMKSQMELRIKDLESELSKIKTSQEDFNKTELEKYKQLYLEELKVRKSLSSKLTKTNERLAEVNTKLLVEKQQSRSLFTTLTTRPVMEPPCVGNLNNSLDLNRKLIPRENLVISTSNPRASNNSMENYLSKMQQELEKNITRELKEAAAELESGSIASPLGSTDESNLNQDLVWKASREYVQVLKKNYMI
UniProt A6QL64: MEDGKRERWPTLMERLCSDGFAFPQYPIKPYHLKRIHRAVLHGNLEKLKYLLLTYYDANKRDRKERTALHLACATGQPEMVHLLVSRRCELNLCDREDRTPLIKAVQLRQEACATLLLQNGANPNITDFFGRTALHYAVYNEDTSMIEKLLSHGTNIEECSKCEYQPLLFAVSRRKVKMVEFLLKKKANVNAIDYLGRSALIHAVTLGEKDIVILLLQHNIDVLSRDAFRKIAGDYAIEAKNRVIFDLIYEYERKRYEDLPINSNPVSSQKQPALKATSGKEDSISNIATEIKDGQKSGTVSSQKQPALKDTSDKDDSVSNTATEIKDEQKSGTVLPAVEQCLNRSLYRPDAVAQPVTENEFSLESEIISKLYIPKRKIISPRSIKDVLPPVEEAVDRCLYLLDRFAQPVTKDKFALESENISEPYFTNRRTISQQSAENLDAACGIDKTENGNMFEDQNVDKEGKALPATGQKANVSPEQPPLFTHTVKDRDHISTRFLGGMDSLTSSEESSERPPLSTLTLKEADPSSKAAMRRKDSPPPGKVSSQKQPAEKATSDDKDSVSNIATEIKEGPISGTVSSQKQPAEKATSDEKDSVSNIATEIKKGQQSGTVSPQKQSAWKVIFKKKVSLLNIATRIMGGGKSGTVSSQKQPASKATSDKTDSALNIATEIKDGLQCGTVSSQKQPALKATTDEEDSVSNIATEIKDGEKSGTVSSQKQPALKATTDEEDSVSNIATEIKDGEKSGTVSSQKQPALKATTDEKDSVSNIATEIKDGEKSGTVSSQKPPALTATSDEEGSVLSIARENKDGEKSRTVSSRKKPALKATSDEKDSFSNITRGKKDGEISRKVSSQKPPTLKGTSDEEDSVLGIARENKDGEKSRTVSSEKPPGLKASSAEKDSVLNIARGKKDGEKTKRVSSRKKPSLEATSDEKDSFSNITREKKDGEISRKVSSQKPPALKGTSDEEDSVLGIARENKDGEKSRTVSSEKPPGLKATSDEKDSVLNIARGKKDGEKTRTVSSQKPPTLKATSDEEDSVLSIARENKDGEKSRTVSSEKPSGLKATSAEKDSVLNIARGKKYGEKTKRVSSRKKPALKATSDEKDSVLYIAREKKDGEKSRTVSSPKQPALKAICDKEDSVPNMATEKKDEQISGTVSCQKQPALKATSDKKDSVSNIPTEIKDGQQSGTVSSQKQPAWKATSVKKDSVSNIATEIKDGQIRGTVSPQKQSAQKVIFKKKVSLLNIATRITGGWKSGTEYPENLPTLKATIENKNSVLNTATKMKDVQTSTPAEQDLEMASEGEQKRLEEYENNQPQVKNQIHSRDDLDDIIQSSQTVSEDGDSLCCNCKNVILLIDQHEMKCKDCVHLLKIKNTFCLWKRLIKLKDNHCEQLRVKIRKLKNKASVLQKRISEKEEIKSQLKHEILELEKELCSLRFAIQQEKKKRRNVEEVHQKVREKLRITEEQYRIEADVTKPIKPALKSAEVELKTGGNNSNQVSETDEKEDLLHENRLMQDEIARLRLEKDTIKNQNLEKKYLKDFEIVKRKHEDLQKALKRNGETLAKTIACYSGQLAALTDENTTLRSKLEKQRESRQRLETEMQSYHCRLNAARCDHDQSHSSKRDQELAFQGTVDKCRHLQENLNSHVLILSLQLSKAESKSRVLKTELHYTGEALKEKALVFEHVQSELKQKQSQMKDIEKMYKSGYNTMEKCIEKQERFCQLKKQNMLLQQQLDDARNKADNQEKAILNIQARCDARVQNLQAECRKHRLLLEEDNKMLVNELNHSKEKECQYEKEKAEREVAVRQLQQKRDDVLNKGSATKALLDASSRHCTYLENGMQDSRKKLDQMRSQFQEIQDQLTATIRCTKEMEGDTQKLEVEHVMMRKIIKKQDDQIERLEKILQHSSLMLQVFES

nilotinib = compound: Cc1cn(-c2cc(NC(=O)c3ccc(C)c(Nc4nccc(-c5cccnc5)n4)c3)cc(C(F)(F)F)c2)cn1 [nilotinib]
Outline: as §1

[2] = compound: Cc1nc(Nc2n[nH]c3c2CN(C(=O)N[C@H](CN(C)C)c2ccccc2)C3(C)C)c2sccc2n1
Outline: as §1

dasatinib = compound: Cc1nc(Nc2ncc(C(=O)Nc3c(C)cccc3Cl)s2)cc(N2CCN(CCO)CC2)n1 [dasatinib]
Outline: as §1

[3] = compound: Cc1ncc(-c2ccnc(Nc3ccc(S(C)(=O)=O)cc3)n2)n1C(C)C
Outline: as §1

[4] = compound: Cn1cc(-c2ccc3c(c2)CCN3C(=O)Cc2cccc(C(F)(F)F)c2)c2c(N)ncnc21
Outline: as §1

[5] = compound: Cn1cc(-c2ccc3nnc(C(F)(F)c4ccc5ncccc5c4)n3n2)cn1
Outline: as §1

tipifarnib = compound: Cn1cncc1[C@@](N)(c1ccc(Cl)cc1)c1ccc2c(c1)c(-c1cccc(Cl)c1)cc(=O)n2C [tipifarnib]
Outline: as §1

mubritinib = compound: FC(F)(F)c1ccc(/C=C/c2nc(COc3ccc(CCCCn4ccnn4)cc3)co2)cc1 [mubritinib]
Outline: as §1

bafetinib = compound: Cc1ccc(NC(=O)c2ccc(CN3CC[C@H](N(C)C)C3)c(C(F)(F)F)c2)cc1Nc1nccc(-c2cncnc2)n1 [bafetinib]
Outline: as §1

Measured: log2 fold change

AP1B1 isoform 3 (UniProt Q10567)
inactive: [1] -0.053 | nilotinib 0.02 | [2] -0.014 | dasatinib -0.063 | [3] 0.045 | [4] 0.015 | [5] -0.082 | tipifarnib -0.072 | mubritinib -0.011

APAF1 (UniProt O14727)
inactive: [1] 0.042 | nilotinib -0.058 | [2] -0.015 | dasatinib -0.121 | [3] -0.268 | [4] -0.122 | [5] -0.016 | tipifarnib -0.152 | mubritinib -0.032

APOBEC3B (UniProt Q9UH17)
inactive: nilotinib -0.031 | [2] -0.2 | [3] 0.05 | [4] -0.087 | [5] 0.212

AREG (UniProt P15514)
inactive: dasatinib 0.025 | tipifarnib 0.187

ARHGAP5 (UniProt Q13017)
inactive: bafetinib 0.006 | [4] -0.093 | [5] 0.139

ANGEL1 (UniProt Q9UNK9)
inactive: bafetinib 0.015 | [5] -0.063

ANKLE2 (UniProt Q86XL3)
inactive: tipifarnib 0.131

ANKRD16 (UniProt Q6P6B7)
inactive: bafetinib -0.095 | tipifarnib 0.2 | mubritinib 0.185

APTX (UniProt Q7Z2E3)
inactive: [1] -0.113 | dasatinib -0.026 | [4] -0.011

AP5S1 (UniProt Q9NUS5)
inactive: nilotinib -0.059 | [2] 0.007 | [3] 0.051 | mubritinib -0.055

APOC2 (UniProt P02655)
inactive: [1] 0.026 | nilotinib 0.305 | [2] -0.072 | dasatinib -0.038 | [3] -0.078 | [4] 0.201 | mubritinib 0.003

ARHGAP35 (UniProt Q9NRY4)
inactive: [1] -0.089 | dasatinib -0.016 | [4] -0.024 | [5] -0.081 | tipifarnib 0.053 | mubritinib -0.186

ARID4B (UniProt Q4LE39)
inactive: mubritinib -0.085

APC (UniProt P25054)
inactive: bafetinib 0.059 | dasatinib 0.008 | [4] -0.014 | [5] 0.021

ANKRD13C (UniProt Q8N6S4)
inactive: [4] -0.224

ARID1B isoform 3 (UniProt Q8NFD5)
inactive: bafetinib 0.112 | [5] 0.277

APH1B (UniProt Q8WW43)
inactive: [1] -0.055

ANPEP (UniProt P15144)
inactive: [1] 0.058 | nilotinib -0.071 | [2] -0.399 | dasatinib 0.01 | [3] -0.013 | [4] 0.158 | [5] -0.023 | tipifarnib 0.051 | mubritinib 0.006

ANKIB1 (UniProt Q9P2G1)
inactive: nilotinib 0.126 | [2] 0.192 | [3] 0.088

ANGPTL3 (UniProt Q9Y5C1)
inactive: bafetinib -0.195 | dasatinib -0.065 | [4] 0.288 | [5] 0.057 | tipifarnib 0.168 | mubritinib -0.062

APOBEC3D (UniProt Q96AK3)
inactive: bafetinib 0.027 | dasatinib 0.008 | [4] -0.211 | [5] -0.086 | tipifarnib 0.183 | mubritinib -0.107

APOD (UniProt P05090)
inactive: nilotinib 0.089 | [2] -0.097 | [3] 0.579 | [4] 0.21 | tipifarnib -0.014 | mubritinib -0.119

ANKRD27 (UniProt Q96NW4)
inactive: [5] -0.264

APLF (UniProt Q8IW19)
inactive: [4] -0.019 | tipifarnib -0.06

AP3M2 (UniProt P53677)
inactive: bafetinib -0.158 | [4] -0.02 | mubritinib 0.036

ANKRD26 (UniProt Q9UPS8)
inactive: [1] -0.042 | nilotinib -0.039 | [2] 0.069 | [3] 0.034 | [4] 0.126 | [5] 0.059 | tipifarnib -0.021 | mubritinib -0.094

ANKRD11 (UniProt Q6UB99)
inactive: bafetinib -0.059 | nilotinib -0.284 | [2] -0.058 | [3] -0.106 | [5] 0.102 | mubritinib 0.148

APP (UniProt P05067)
inactive: nilotinib 0.119 | [2] -0.246 | [3] -0.019 | [5] -0.048 | tipifarnib 0.058 | mubritinib 0.067

ARHGAP6 (UniProt O43182)
inactive: nilotinib 0.122 | [2] -0.226 | dasatinib -0.19 | [3] 0.254 | [5] -0.2 | mubritinib -0.073

ANKRD52 (UniProt Q8NB46)
inactive: nilotinib 0.072 | [2] -0.053 | dasatinib 0.379 | [3] 0.003 | [4] 0.023 | [5] -0.06 | mubritinib -0.049

Taken from above (two entries):
ANKRD26 (UniProt Q9UPS8)
inactive: [1] -0.042 | nilotinib -0.039 | [2] 0.069 | [3] 0.034 | [4] 0.126 | [5] 0.059 | tipifarnib -0.021 | mubritinib -0.094

ANKRD11 (UniProt Q6UB99)
inactive: bafetinib -0.059 | nilotinib -0.284 | [2] -0.058 | [3] -0.106 | [5] 0.102 | mubritinib 0.148

Going on with the list.

ARHGEF12 (UniProt Q9NZN5)
inactive: bafetinib 0.074 | dasatinib -0.115 | [5] -0.106 | tipifarnib -0.067 | mubritinib -0.156

ANKRD36 (UniProt A6QL64)
inactive: [1] -0.519 | dasatinib -0.005 | mubritinib -0.153

ARHGAP22 isoform 2 (UniProt Q7Z5H3)
inactive: [1] 0.008 | [5] 0.008 | tipifarnib -0.06

ANXA2 (UniProt H0YMT9)
inactive: bafetinib 0.078 | dasatinib -0.052

ANKS1A (UniProt Q92625)
inactive: bafetinib -0.342 | [4] 0.004 | [5] -0.239

API5 isoform 1 (UniProt Q9BZZ5)
inactive: nilotinib -0.267 | [2] -0.242 | dasatinib -0.095 | [3] 0.196 | [4] 0.201 | tipifarnib 0.128

ANKH (UniProt Q9HCJ1)
inactive: [1] -0.356 | nilotinib -0.048 | [2] -0.018 | dasatinib 0.206 | [3] -0.103 | [5] 0.08 | tipifarnib 0.108

AP1G2 (UniProt O75843)
inactive: dasatinib 0.086 | [4] -0.368 | [5] 0 | tipifarnib -0.269

Source: the supplement of paper PMC10849652
